Measurements: paper PMC9786777, “Phosphorylation of Thr9 Affects the Folding Landscape of the N-Terminal Segment of Human AGT Enhancing Protein Aggregation of Disease-Causing Mutants” (Molecules, 2022)
No constants are given. Whether binding was seen depends on the method and setting.

Tests used:
Assay in all cases: translational diffusion NMR (DOSY); peptide alone at 100 µM, 100 mM sodium phosphate pH 7.2, 100% D2O, 10 °C, 1% dioxane as reference for Rh; both purified
[1] = biological target: NTT-AGT WT peptide (human)
[2] = biological target: NTT-AGT P11L peptide (human)
[3] = biological target: NTT-AGT T9E peptide (human)
[4] = biological target: NTT-AGT T9E-P11L peptide (human)

For MASHKLLVTPPKALLKPLSIPY (C-terminal amide (on the added Y)) [NTT-AGT WT peptide], the binding [1] was “no binding (tested: 100 µM)”.

In the case of MASHKLLVTPLKALLKPLSIPY (C-terminal amide (on the added Y)) [NTT-AGT P11L peptide], the binding [2] is reported as “no binding (tested: 100 µM)”.

For MASHKLLVEPPKALLKPLSIPY (C-terminal amide (on the added Y)) [NTT-AGT T9E peptide], the binding [3] was “no binding (tested: 100 µM)”.

For MASHKLLVEPLKALLKPLSIPY (C-terminal amide (on the added Y)) [NTT-AGT T9E-P11L peptide], the binding [4] was “no binding (tested: 100 µM)”.
